# Source: the supplement of paper PMC8728848
# This is one part of the list.
# What was measured:
# Assay in all cases: glycan array binding signal (z-score within array); higher = stronger binding
# Conditions in all cases: glycan notation: IUPAC condensed, linker removed
# Fuc(a1-2)Gal = target: Fuc(a1-2)Gal
# In short: (§1)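 Negative Z-scores can be read as non-binding. The Z-score is calculated within each array and then averaged across arrays of one protein sequence at different concentrations or buffers and across linkers. Arrays, 3228 in all, were curated from the Consortium for Functional Glycomics database and kept only where the protein sequence was available.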
# Fuc(a1-2)Gal(b1-3)GalNAc = target: Fuc(a1-2)Gal(b1-3)GalNAc
# In short: as §1
# [1] = target: Fuc(a1-2)Gal(b1-3)GalNAc(a1-3)[Fuc(a1-2)]Gal(b1-4)Glc
# In short: as §1
# [2] = target: Fuc(a1-2)Gal(b1-3)GalNAc(a1-3)[Fuc(a1-2)]Gal(b1-4)GlcNAc
# In short: as §1
# [3] = target: Fuc(a1-2)Gal(b1-3)GalNAc(b1-3)Gal
# In short: as §1
# [4] = target: Fuc(a1-2)Gal(b1-3)GalNAc(b1-3)Gal(a1-4)Gal(b1-4)Glc
# In short: as §1
# [5] = target: Fuc(a1-2)Gal(b1-3)GalNAc(b1-4)[Neu5Ac(a2-3)]Gal(b1-4)Glc
# In short: as §1
# Fuc(a1-2)Gal(b1-3)GlcNAc = target: Fuc(a1-2)Gal(b1-3)GlcNAc
# In short: as §1
# [6] = target: Fuc(a1-2)Gal(b1-3)GlcNAc(b1-2)Man(a1-3)[Fuc(a1-2)Gal(b1-3)GlcNAc(b1-2)Man(a1-6)]Man(b1-4)GlcNAc(b1-4)GlcNAc
# In short: as §1
# [7] = target: Fuc(a1-2)Gal(b1-3)GlcNAc(b1-2)Man(a1-3)[Fuc(a1-2)Gal(b1-3)GlcNAc(b1-2)Man(a1-6)]Man(b1-4)GlcNAc(b1-4)[Fuc(a1-6)]GlcNAc
# In short: as §1
# [8] = target: Fuc(a1-2)Gal(b1-3)GlcNAc(b1-3)Gal(b1-4)Glc
# In short: as §1
# [9] = target: Fuc(a1-2)Gal(b1-3)GlcNAc(b1-3)GalNAc
# In short: as §1
# [10] = target: Fuc(a1-2)Gal(b1-3)GlcNAc(b1-3)[Fuc(a1-2)Gal(b1-3)GlcNAc(b1-6)]GalNAc
# In short: as §1
# [11] = target: Fuc(a1-2)Gal(b1-3)GlcNAc(b1-3)[Gal(b1-4)GlcNAc(b1-6)]Gal(b1-4)Glc
# In short: as §1
# [12] = target: Fuc(a1-2)Gal(b1-3)GlcNAc(b1-3)[Neu5Ac(a2-6)Gal(b1-4)GlcNAc(b1-6)]Gal(b1-4)Glc
# In short: as §1
# [13] = target: Fuc(a1-2)Gal(b1-3)GlcNAc6S
# In short: as §1
# [14] = target: Fuc(a1-2)Gal(b1-3)[Fuc(a1-4)]GlcNAc
# In short: as §1
# [15] = target: Fuc(a1-2)Gal(b1-3)[Fuc(a1-4)]GlcNAc(b1-2)Man(a1-3)[Fuc(a1-2)Gal(b1-3)[Fuc(a1-4)]GlcNAc(b1-2)Man(a1-3)]Man(b1-4)GlcNAc(b1-4)GlcNAc
# In short: as §1
# [16] = target: Fuc(a1-2)Gal(b1-3)[Fuc(a1-4)]GlcNAc(b1-2)Man(a1-3)[Fuc(a1-2)Gal(b1-3)[Fuc(a1-4)]GlcNAc(b1-2)Man(a1-6)]Man(b1-4)GlcNAc(b1-4)[Fuc(a1-6)]GlcNAc(b1-4)[Fuc(a1-6)]GlcNAc
# In short: as §1
# [17] = target: Fuc(a1-2)Gal(b1-3)[Fuc(a1-4)]GlcNAc(b1-3)[Fuc(a1-3)[Gal(b1-4)]GlcNAc(b1-6)]Gal(b1-4)Glc
# In short: as §1
# [18] = target: Fuc(a1-2)Gal(b1-3)[Fuc(a1-4)]GlcNAc(b1-3)[Gal(b1-4)GlcNAc(b1-6)]Gal(b1-4)Glc
# In short: as §1
# Fuc(a1-2)Gal(b1-4)Glc = target: Fuc(a1-2)Gal(b1-4)Glc
# In short: as §1
# Fuc(a1-2)Gal(b1-4)Glc6S = target: Fuc(a1-2)Gal(b1-4)Glc6S
# In short: as §1
# Fuc(a1-2)Gal(b1-4)GlcNAc = target: Fuc(a1-2)Gal(b1-4)GlcNAc
# In short: as §1
# [19] = target: Fuc(a1-2)Gal(b1-4)GlcNAc(b1-2)Man
# In short: as §1
# [20] = target: Fuc(a1-2)Gal(b1-4)GlcNAc(b1-2)Man(a1-3)[Fuc(a1-2)Gal(b1-4)GlcNAc(b1-2)Man(a1-6)]Man(b1-4)GlcNAc(b1-4)GlcNAc
# In short: as §1
# [21] = target: Fuc(a1-2)Gal(b1-4)GlcNAc(b1-2)Man(a1-3)[Fuc(a1-2)Gal(b1-4)GlcNAc(b1-2)Man(a1-6)]Man(b1-4)GlcNAc(b1-4)[Fuc(a1-6)]GlcNAc
# In short: as §1
# [22] = target: Fuc(a1-2)Gal(b1-4)GlcNAc(b1-2)[Fuc(a1-2)Gal(b1-4)GlcNAc(b1-4)]Man(a1-3)[Fuc(a1-2)Gal(b1-4)GlcNAc(b1-2)Man(a1-6)]Man(b1-4)GlcNAc(b1-4)GlcNAc
# In short: as §1
# [23] = target: Fuc(a1-2)Gal(b1-4)GlcNAc(b1-3)Gal(b1-4)GlcNAc
# In short: as §1
# [24] = target: Fuc(a1-2)Gal(b1-4)GlcNAc(b1-3)Gal(b1-4)GlcNAc(b1-2)Man(a1-3)[Fuc(a1-2)Gal(b1-4)GlcNAc(b1-3)Gal(b1-4)GlcNAc(b1-2)Man(a1-6)]Man(b1-4)GlcNAc(b1-4)GlcNAc
# In short: as §1
binder,measurement,setting,value
Nc3LysM-2 (protein) AHVLQARQSVSCDFATAANTGDTCASFAAAWGITEAAFAKLNPGVSCPGNLIAGSEYCVIGTVSTGAPTTTKAATTSTTPPTTTTTTKATTLSTSTTSVSPTGPSPQMPSITSTCNKFYQVQSGDGCWSIEQAQGVSASDFMAWNKAVDAQCDNLWLGYYVCVGVKGGSSPPPTTTTKPASSSAPTPQMPNTVSNCKKFHKVVSGDGCWAIEQAAGISASDFAKWNPYVDAACDNLWLGYYVCIGV,glycan array binding signal (z-score),Fuc(a1-2)Gal,-0.698
same,glycan array binding signal (z-score),Fuc(a1-2)Gal(b1-3)GalNAc,-0.369
same,glycan array binding signal (z-score),[1],0.193
same,glycan array binding signal (z-score),[2],-0.746
same,glycan array binding signal (z-score),[3],0.129
same,glycan array binding signal (z-score),[4],-0.566
same,glycan array binding signal (z-score),[5],0.388
same,glycan array binding signal (z-score),Fuc(a1-2)Gal(b1-3)GlcNAc,0.966
same,glycan array binding signal (z-score),[6],-0.335
same,glycan array binding signal (z-score),[7],1.25
same,glycan array binding signal (z-score),[8],-0.628
same,glycan array binding signal (z-score),[9],0.157
same,glycan array binding signal (z-score),[10],1.55
same,glycan array binding signal (z-score),[11],0.735
same,glycan array binding signal (z-score),[12],-1.69
same,glycan array binding signal (z-score),[13],-1.29
same,glycan array binding signal (z-score),[14],-1.14
same,glycan array binding signal (z-score),[15],0.078
same,glycan array binding signal (z-score),[16],0.307
same,glycan array binding signal (z-score),[17],0.706
same,glycan array binding signal (z-score),[18],-1.06
same,glycan array binding signal (z-score),Fuc(a1-2)Gal(b1-4)Glc,0.288
same,glycan array binding signal (z-score),Fuc(a1-2)Gal(b1-4)Glc6S,0.176
same,glycan array binding signal (z-score),Fuc(a1-2)Gal(b1-4)GlcNAc,0.515
same,glycan array binding signal (z-score),[19],0.135
same,glycan array binding signal (z-score),[20],2.21
same,glycan array binding signal (z-score),[21],0.188
same,glycan array binding signal (z-score),[22],0.669
same,glycan array binding signal (z-score),[23],-0.324
same,glycan array binding signal (z-score),[24],1.23

# Fetched one by one from the entries so far:
binder,measurement,setting,value
Nc3LysM-2 (protein) AHVLQARQSVSCDFATAANTGDTCASFAAAWGITEAAFAKLNPGVSCPGNLIAGSEYCVIGTVSTGAPTTTKAATTSTTPPTTTTTTKATTLSTSTTSVSPTGPSPQMPSITSTCNKFYQVQSGDGCWSIEQAQGVSASDFMAWNKAVDAQCDNLWLGYYVCVGVKGGSSPPPTTTTKPASSSAPTPQMPNTVSNCKKFHKVVSGDGCWAIEQAAGISASDFAKWNPYVDAACDNLWLGYYVCIGV,glycan array binding signal (z-score),[6],-0.335
same,glycan array binding signal (z-score),[15],0.078
